Assay results taken from paper PMC3534373.
No constants are given. Whether binding was seen depends on the method and setting. In cells and extracts the contact can be indirect. Some entries that bind do so weakly or less than the wild type.

Chains of the proteins cited; added tags and fusions are not shown. Lines headed by an entry give the natural chain unless they say otherwise; changes in a name come on top. A line that says so, or that is headed by a name, gives the form on record, which may keep a tag or linker. Residues count along the entry.
UniProt Q7Z434: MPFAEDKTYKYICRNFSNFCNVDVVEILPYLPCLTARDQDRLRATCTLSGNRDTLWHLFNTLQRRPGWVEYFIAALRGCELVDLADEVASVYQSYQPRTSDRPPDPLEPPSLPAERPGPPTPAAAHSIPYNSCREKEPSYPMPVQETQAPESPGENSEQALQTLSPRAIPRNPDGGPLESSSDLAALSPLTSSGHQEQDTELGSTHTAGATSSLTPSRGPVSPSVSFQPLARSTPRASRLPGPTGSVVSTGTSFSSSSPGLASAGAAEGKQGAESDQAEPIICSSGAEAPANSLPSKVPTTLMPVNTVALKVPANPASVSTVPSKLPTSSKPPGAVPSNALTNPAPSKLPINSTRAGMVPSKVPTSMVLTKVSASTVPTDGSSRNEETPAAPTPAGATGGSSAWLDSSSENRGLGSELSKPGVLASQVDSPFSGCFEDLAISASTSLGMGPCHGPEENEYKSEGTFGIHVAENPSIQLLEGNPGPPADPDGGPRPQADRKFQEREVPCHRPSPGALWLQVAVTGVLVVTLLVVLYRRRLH
MAVSΔCARD (Q7Z434, form named): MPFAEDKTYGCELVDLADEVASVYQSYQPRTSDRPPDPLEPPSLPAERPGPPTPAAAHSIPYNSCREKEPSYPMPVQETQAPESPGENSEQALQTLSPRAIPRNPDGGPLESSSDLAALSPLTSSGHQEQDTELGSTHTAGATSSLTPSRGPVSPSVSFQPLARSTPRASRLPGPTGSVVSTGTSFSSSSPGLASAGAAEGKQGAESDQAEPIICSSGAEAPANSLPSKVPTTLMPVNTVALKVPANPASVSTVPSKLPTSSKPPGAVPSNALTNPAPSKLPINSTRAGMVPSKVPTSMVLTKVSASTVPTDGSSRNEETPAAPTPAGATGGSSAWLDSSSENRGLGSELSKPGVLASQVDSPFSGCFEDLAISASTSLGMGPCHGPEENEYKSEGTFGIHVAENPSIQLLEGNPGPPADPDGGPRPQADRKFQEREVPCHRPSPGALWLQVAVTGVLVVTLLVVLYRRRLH
UniProt P10606, residues 32-129: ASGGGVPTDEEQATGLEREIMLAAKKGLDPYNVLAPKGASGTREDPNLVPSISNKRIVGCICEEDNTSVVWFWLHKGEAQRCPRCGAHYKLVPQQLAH

Legend:
[1] = target: endogenous MAVS (human (endogenous in HEK293)) (UniProt Q7Z434); assay: co-IP; endogenous proteins; cells lysed in 1% NP-40 buffer; anti-MAVS antibody or control IgG overnight at 4°C, protein A/G beads; immunoblot
Flag-MAVS (human) = Flag-MAVS (human) (UniProt Q7Z434); assay: co-IP; HEK293 cells transfected, lysed 24 h later in 0.5% Triton X-100 buffer (20 mM Tris pH 7.5, 150 mM NaCl, 1 mM EDTA, 10% glycerol); anti-Flag agarose beads 4 h or anti-Myc antibody overnight at 4°C with protein A/G beads; immunoblot; for MAVSΔTM also with co-expressed activated MAVS (Figure S10B)
MAVSΔCARD (human) = MAVSΔCARD (human) (UniProt Q7Z434); assay: as above

Row | binding [1] | binding (Flag-MAVS (human)) | binding (MAVSΔCARD (human)) | Substance
1 | binds | – | – | endogenous COX5B (from UniProt P10606 32-129)
2 | – | binds | no binding | epitope-tagged COX5B (from UniProt P10606 32-129)
